No constants are given. Whether binding was seen depends on the method and setting. In cells and extracts the contact can be indirect. Some binding calls cover weakened binding; strength is not graded here.
Legend:
[1] = biological target: T1, dopamine D4 receptor (D4R) (mouse (endogenous in mouse kidney and mouse DCT cells)) (UniProt P51436); assay: co-IP
T1 sequence: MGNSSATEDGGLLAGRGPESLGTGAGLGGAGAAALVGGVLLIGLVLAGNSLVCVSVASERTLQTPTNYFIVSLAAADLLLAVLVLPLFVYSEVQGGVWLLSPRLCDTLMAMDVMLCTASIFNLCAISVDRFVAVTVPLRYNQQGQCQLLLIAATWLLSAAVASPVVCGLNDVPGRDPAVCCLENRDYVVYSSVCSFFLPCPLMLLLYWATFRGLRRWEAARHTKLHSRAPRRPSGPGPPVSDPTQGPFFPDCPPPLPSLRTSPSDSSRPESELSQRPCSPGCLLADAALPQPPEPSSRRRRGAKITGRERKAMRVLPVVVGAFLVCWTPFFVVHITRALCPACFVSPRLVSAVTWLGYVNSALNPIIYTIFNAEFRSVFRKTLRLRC

[2] = biological target: T2, ubiquitin-specific-protease 48 (USP48) (mouse (endogenous in mouse kidney)) (UniProt Q3V0C5); assay: co-IP
T2 sequence: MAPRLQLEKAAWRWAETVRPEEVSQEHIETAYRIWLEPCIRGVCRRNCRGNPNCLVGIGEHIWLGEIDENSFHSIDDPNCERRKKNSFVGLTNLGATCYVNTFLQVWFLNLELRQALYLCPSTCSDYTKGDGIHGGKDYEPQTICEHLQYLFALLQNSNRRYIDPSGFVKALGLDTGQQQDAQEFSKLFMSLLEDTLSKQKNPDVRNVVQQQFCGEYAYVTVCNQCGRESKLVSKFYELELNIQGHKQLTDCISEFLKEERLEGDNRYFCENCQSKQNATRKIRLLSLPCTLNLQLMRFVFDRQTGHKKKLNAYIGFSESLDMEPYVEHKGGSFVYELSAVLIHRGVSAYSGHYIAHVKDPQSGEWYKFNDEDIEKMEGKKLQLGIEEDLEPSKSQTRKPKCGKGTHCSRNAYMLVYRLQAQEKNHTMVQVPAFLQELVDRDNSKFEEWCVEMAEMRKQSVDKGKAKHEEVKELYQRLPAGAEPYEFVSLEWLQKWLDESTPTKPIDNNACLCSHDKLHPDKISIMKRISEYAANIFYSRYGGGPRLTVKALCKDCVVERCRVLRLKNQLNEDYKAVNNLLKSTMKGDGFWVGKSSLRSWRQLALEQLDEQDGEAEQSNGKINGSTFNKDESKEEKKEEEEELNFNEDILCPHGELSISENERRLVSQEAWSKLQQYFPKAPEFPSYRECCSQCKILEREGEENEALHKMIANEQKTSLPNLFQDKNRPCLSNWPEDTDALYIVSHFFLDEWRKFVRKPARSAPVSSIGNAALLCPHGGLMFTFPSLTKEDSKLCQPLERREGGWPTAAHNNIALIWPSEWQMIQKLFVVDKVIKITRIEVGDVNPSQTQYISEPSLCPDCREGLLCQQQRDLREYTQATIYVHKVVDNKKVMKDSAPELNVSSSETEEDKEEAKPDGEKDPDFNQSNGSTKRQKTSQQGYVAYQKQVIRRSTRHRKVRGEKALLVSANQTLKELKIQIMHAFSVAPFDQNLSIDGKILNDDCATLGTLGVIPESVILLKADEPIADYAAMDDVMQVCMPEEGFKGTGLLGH

[3] = biological target: T1, dopamine D4 receptor (D4R) (mouse (endogenous in mouse kidney and mouse DCT cells)); assay: co-IP; remark: listed apart in the source
[4] = biological target: T1, dopamine D4 receptor (D4R) (mouse (endogenous in mouse kidney and mouse DCT cells)); assay: FRET or BRET

binding [1]: binds
binding [2]: binds
binding [3]: binds
binding [4]: binds
B1: thiazide-sensitive sodium chloride cotransporter (NCC) (protein, UniProt P59158 1-1002)
chain: MAELPVTELPGDALCSGRFTISTLMGGDEPPPAACDSSQPSHLTHGSTLYMRTFGYNTIDVVPAYEHYANSALPGEPRKVRPTLADLHSFLKQEGSHLHALAFDGRQGRELTDGLVEDETGTNSEKSPGEPVRFGWVKGVMIRCMLNIWGVILYLRLPWITAQAGIVLTWLIILLSVMVTSITGLSISAISTNGKVKSGGTYFLISRSLGPELGGSIGLIFAFANAVGVAMHTVGFAETVRDLLQEYGTPIVDPINDIRIIGVVTVTVLLAISLAGMEWESKAQVLFFLVIMVSFANYLVGTLIPASEDKASKGFYSYHGDIFVQNLVPDWRGIDGSFFGMFSIFFPSATGILAGANISGDLKDPAVAIPKGTLMAIFWTTISYLAISATIGSCVVRDASGDVNDTMTPGPGPCEGLACGYGWNFTECSQQRSCRYGLINYYQTMSMVSAFAPLITAGIFGATLSSALACLVSAAKVFQCLCEDQLYPLIGFFGKGYGKNREPVRGYLLAYAIAVAFIIIAELNTIAPIISNFFLCSYALINFSCFHASITNSPGWRPSFRYYSKWAALFGAVISVVIMFLLTWWAALIAIGVVLFLLLYVIYKKPEVNWGSSVQAGSYNLALSYSVGLNEVEDHIKNYRPQCLVLTGPPNFRPALVDFVSTFTQNLSLMICGHVLIGPGKQRVPELRLIASGHTKWLNKRKIKAFYSDVIAEDLRSGVQILMQASGLGRMKPNILVVGFKRNWQSAHPATVEDYIGVLHDAFDFNYGVCVMRMREGLNVSEALQTHTTPEALIQEEQASTIFQSEQGKKTIDIYWLFDDGGLTLLIPYLLHRKKRWGKCKIRVFVGGQINRMDEERKAIISLLSKFRLGFHEVHVLPDINQKPQAEHTKRFEDMIAPFRLNDGFKDEATVTEMRRDCPWKISDEEINKNRIKSLRQVRLSEILLDYSRDAALIILTLPIGRKGKCPSSLYMAWLETLSQDLRPPVLLIRGNQENVLTFYCQ

— paper doi:10.1101/2024.02.14.580405
